Substitutions are numbered along the chain they refer to. These are yes or no findings as the source states them, for the method shown. Some entries that bind do so weakly or less than the wild type.
Assays:
[1] = target: human GPVI extracellular region-human Fc fusion protein (hGPVI-hFc) (human); test: binding to antigen of co-expressed chains; antigen construct not named
[2] = target: cynomolgus monkey GPVI on cynomolgus monkey platelets (cynomolgus monkey); test: flow cytometry on platelets, 10 µg/mL, anti-human IgG-FITC
[3] = target: cynomolgus monkey D1D2-human D3 chimeric GPVI-human Fc fusion protein (GPVI-FFH-hFc) (cynomolgus monkey (D1, D2), human (D3)); test: ELISA on immobilised GPVI-FFH-hFc, anti-human kappa detection

B1: F1232-37-2 humanized heavy chain Eu-HC with the chimeric light chain (antibody, V domains shown)
VH: QVQLVQSGAEVKKPGSSVKVSCKASGGTFSDYAIHWVRQAPGQGLEWIGVISIYYDDTNYNQKFKGKATITADESTNTAYMELSSLRSEDTAIYYCARRRDSSGPYAMDYWGQGTLVTVSS
VL: DIVLTQSPASLAVSLGQRATISCRASESVDSYGNSFMHWYQQKPGQPPKLLIYRASNLESGIPARFSGSGSRTDFTLTINPVEADDVATYYCQQSNEDPYTFGGGTKLEIKR
In the case of B1, the binding [1] is reported as “binds”.

B2: chimeric F1232-37-2 heavy chain with humanized light chain REI-KA (antibody, human IgG4, V domains shown)
VH: VQLQQSGPELVRPGESVKISCKGSGYTFTDYAIHWVKLSHAKSLEWIGVISIYYDDTNYNQKFKGKATMTVDKSSSTAYLELARLTSEDSAIYYCARRRDSSGPYAMDYWGQGTSVTVSS
VL: DIQMTQSPSSLSASVGDRVTITCRASESVDSYGNSFMHWYQQKPGKAPKLLIYRASNLESGVPSRFSGSGSGTDFTFTISSLQPEDIATYYCQQSNEDPYTFGQGTKVEIKR
In the case of B2, the binding [1] is reported as “binds”.

B3: chimeric F1232-37-2 heavy chain with humanized light chain Eu-KA (antibody, human IgG4, V domains shown)
VH: B2 VH
VL: B2 VL with S10T, I52M, S67I, D74E, F77L, E85D, I87F, I110V
With B3 the binding [1] was “binds”.

B4: cF1232-37-2S (antibody, V domains shown)
VH: B2 VH
VL: B1 VL
In the case of B4, the binding [2] is reported as “binds”.

B5: anti-GPVI mouse-human chimeric antibody (Clone No. F1232-7-1) (antibody, human IgG4, V domains shown)
VH: B2 VH with L80M
VL: B1 VL
In the case of B5, the binding [3] is reported as “binds”.
